Data as given in PubChem BioAssay AID1259424 (University of Nebraska Medical Center, 2018).

Assay: 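Seek colon cancer survival genes behaving like KSR1, using a six-gene signature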 (primary screen)
System: human HCT116 colon cancer cells
Reagent: siRNA pool against human genes, 50 nM
Measurement: 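Log2 levels of six mRNAs (branched-DNA multiplex), adjusted by two reference genes and the non-targeting median, then scored against the average KSR1 knockdown pattern as Pearson r and euclidean distance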
Direction: mean correlation with KSR1 profile and KSR1 correlation: higher = expression change more like KSR1 knockdown; mean distance from KSR1 profile: higher = expression change less like KSR1 knockdown
Shown is a random part of about 14,000 reagents. 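Higher correlation or smaller distance means closer resemblance to KSR1 loss; control wells, including KSR1 knockdowns, recur on many plates.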 No sequences are given here. Not given: the time to read-out.

| gene symbol | mean correlation with KSR1 profile | mean distance from KSR1 profile | KSR1 correlation, replicate 1 | KSR1 correlation, replicate 2 | KSR1 correlation, replicate 3 |
| --- | --- | --- | --- | --- | --- |
| COL11A2 (collagen type XI alpha 2 chain) | -0.176 | 1.45 | -0.0698 | -0.304 | 0.0332 |
| ADAP2 (ArfGAP with dual PH domains 2) | 0.426 | 1.71 | 0.1 | 0.461 | 0.294 |
| CD59 (CD59 molecule (CD59 blood group)) | -0.0438 | 1.61 | -0.125 | 0.0152 | -0.217 |
| CNTNAP1 (contactin associated protein 1) | 0.0244 | 1.3 | 0.227 | 0.0868 | -0.191 |
| NTF4 (neurotrophin 4) | -0.0268 | 1.7 | 0.12 | 0.0633 | -0.386 |
| MCEE (methylmalonyl-CoA epimerase) | 0.014 | 3.5 | 0.171 | -0.571 | 0.257 |
| MAST4 | -0.384 | 1.75 | 0.00789 | -0.315 | -0.881 |
| TMEM176A (transmembrane protein 176A) | -0.831 | 1.81 | -0.721 | -0.853 | -0.613 |
| SLC17A6 | -0.687 | 1.93 | -0.694 | -0.51 | -0.404 |
| RAB5B (RAB5B, member RAS oncogene family) | 0.188 | 1.94 | 0.033 | 0.197 | 0.308 |
| ARHGAP4 (Rho GTPase activating protein 4) | -0.0785 | 1.72 | 0.122 | -0.183 | -0.279 |
| YTHDC2 (YTH N6-methyladenosine RNA binding protein C2) | 0.145 | 1.74 | -0.172 | 0.24 | 0.304 |
| PLA2G2F (phospholipase A2 group IIF) | -0.102 | 4.03 | -0.087 | -0.183 | -0.129 |
| PKIB (cAMP-dependent protein kinase inhibitor beta) | 0.731 | 5.19 | 0.623 | 0.625 | 0.879 |
| RTEL1 (regulator of telomere elongation helicase 1) | -0.0635 | 2.45 | -0.344 | 0.0575 | 0.0229 |
| RPS6KA6 (ribosomal protein S6 kinase A6) | -0.12 | 1.73 | 0.381 | -0.055 | -0.646 |
| WNT9A (Wnt family member 9A) | -0.609 | 2.16 | -0.7 | -0.228 | -0.624 |
| LIME1 (Lck interacting transmembrane adaptor 1) | -0.309 | 1.79 | -0.00802 | -0.611 | -0.25 |
| LGALS12 (galectin 12) | 0.402 | 1.3 | 0.47 | 0.605 | 0.332 |
| CEP250 (centrosomal protein 250) | -0.575 | 3.37 | -0.507 | -0.726 | -0.461 |
